# Test results published in publication PMC12197088.
# The chains behind the UniProt entries cited, without tags or fusion partners. Residues count along the entry.
# UniProt P11717, 41-2491: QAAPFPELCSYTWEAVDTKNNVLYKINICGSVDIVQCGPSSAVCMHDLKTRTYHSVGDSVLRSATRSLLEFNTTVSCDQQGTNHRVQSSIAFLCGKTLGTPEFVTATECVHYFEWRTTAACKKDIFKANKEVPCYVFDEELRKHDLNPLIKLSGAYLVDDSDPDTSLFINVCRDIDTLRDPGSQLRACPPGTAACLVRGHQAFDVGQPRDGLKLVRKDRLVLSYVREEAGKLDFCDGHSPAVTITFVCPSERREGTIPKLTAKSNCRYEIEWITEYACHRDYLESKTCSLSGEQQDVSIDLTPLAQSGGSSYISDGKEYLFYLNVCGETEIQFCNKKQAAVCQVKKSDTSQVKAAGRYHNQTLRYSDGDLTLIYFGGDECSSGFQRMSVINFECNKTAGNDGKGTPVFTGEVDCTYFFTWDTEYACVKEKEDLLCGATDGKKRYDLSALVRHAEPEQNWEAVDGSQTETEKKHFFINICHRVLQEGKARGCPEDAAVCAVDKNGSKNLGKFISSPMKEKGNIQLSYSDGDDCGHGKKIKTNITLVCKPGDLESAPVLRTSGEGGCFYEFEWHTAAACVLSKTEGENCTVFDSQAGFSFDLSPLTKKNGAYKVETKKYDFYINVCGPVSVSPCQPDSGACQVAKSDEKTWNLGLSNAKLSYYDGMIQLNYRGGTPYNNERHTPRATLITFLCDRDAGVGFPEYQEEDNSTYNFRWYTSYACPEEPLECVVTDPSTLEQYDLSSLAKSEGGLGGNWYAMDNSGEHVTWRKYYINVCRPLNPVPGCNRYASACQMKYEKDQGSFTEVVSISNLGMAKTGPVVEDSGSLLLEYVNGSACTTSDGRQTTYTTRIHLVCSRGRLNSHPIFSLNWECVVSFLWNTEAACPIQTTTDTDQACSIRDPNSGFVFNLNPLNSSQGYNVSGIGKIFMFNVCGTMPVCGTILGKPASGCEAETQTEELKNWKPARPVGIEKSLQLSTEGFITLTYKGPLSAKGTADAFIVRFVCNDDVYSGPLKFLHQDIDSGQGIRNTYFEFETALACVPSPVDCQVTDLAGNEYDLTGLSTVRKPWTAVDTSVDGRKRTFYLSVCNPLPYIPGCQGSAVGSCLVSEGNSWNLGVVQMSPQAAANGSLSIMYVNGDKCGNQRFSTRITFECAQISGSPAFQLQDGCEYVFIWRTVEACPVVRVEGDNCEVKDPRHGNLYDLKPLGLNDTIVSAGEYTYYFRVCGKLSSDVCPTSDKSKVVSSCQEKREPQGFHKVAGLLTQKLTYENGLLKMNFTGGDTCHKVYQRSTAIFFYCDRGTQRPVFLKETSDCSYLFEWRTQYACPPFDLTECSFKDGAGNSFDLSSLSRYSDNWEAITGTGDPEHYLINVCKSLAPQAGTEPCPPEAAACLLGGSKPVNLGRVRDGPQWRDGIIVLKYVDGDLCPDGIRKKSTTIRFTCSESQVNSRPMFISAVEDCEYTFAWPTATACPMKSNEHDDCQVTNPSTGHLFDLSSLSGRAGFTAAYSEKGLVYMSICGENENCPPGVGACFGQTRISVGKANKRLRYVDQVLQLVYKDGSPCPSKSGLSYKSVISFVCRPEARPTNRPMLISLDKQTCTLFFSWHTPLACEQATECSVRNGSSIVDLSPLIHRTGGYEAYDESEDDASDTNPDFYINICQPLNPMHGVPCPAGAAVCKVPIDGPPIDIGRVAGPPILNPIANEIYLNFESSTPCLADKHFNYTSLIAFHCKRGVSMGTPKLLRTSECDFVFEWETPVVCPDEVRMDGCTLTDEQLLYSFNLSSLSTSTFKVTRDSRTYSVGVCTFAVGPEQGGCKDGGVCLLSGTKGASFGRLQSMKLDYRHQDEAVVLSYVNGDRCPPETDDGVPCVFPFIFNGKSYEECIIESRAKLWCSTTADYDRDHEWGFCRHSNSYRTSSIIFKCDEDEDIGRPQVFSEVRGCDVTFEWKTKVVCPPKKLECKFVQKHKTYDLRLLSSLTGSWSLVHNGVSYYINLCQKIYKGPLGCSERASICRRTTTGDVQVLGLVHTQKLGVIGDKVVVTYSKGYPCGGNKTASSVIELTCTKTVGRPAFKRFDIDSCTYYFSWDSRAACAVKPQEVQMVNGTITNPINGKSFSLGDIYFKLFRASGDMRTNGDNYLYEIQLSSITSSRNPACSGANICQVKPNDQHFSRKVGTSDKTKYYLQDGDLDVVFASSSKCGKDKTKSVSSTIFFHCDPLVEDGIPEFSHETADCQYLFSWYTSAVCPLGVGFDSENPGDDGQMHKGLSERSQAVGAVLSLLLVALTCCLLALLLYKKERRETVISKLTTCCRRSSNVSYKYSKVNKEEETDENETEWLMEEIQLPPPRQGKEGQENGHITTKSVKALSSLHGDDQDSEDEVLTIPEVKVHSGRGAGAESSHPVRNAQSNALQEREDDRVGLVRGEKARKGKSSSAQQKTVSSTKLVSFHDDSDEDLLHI
# The exact form of at least one protein or probe is not confirmed. Results from cells or extracts need not show a direct contact.
# Target: IGFIIR, cell surface of MCF-7 (UniProt P11717)
# Assay: flow cytometry
# Settings: intact MCF-7 cells; Dulbecco's PBS with CaCl2 and MgCl2, 4.5 g/L glucose, 5 mM MgCl2, 0.1 mg/mL yeast tRNA, 1 mg/mL BSA; on ice 30 min; pH not stated; protein on the cell surface; folded or branched DNA
sequence,measurement,value
GGGCGCGTAGATGACGAGCAGTCCTAACATCGTTTAGGAC [IGFIIR aptamer],binding result,binds
